{"source": "PubChem BioAssay AID1224826 (NIAID, 2016)", "purpose": "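Knock-downs that raise or lower Tnf reporter signal after endotoxin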 (primary screen)", "cells": "RAW264.7 G9 macrophages from mouse bearing reporters for p65 (GFP) and the Tnf promoter (mCherry)", "reagent": "siRNA pool against mouse genes, 100 nM", "timing": "16 h of LPS stimulation, after 2 days of siRNA transfection", "conditions": "bacterial lipopolysaccharide (Salmonella minnesota R595), 10 ng/ml", "read-out": "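Nuclear mCherry signal of the Tnf promoter reporter measured by imaging after background removal, scaled to each plate median and turned into robust z-scores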", "scale": "Tnf reporter robust z-score: higher = stronger Tnf promoter reporter signal after LPS", "active means": "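a well counts as active at a score of -1.3 or below (Tlr4 knock-down control median) or above 3 (raised signal); controls and wells holding fewer than 50 cells are excluded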", "calls": "active = Tnf reporter clearly lowered or raised; inactive = no clear change in Tnf reporter", "note": "Here is one part, drawn at random, of about 17,000 reagents tested. About 1,110 of all reagents (6.6%) count as active. 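Active means lowered or raised reporter signal; replicate intensities are raw and not normalised per plate.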 Not all columns of the deposit are shown."}
{"gene": "Rbm28", "PubChem SID": "SID315473484", "Tnf reporter robust z-score": 0.82, "fewer than 50 cells in well": "enough cells in well", "Call": "inactive"}
{"gene": "Adk", "PubChem SID": "SID315465311", "Tnf reporter robust z-score": 3, "fewer than 50 cells in well": "enough cells in well", "Call": "inactive"}
{"gene": "Arhgef3", "PubChem SID": "SID315474283", "Tnf reporter robust z-score": 0, "fewer than 50 cells in well": "enough cells in well", "Call": "inactive"}
{"gene": "Polr1g", "PubChem SID": "SID315474014", "Tnf reporter robust z-score": 0.28, "fewer than 50 cells in well": "enough cells in well", "Call": "inactive"}
{"gene": "Epo", "PubChem SID": "SID315466538", "Tnf reporter robust z-score": -1.33, "fewer than 50 cells in well": "enough cells in well", "Call": "active"}
{"gene": "Myog", "PubChem SID": "SID315468084", "fewer than 50 cells in well": "fewer than 50 cells per well; well left out of calls", "Call": "inactive"}
{"gene": "Spty2d1", "PubChem SID": "SID315476293", "Tnf reporter robust z-score": -0.83, "fewer than 50 cells in well": "enough cells in well", "Call": "inactive"}
{"gene": "Tcstv2a", "PubChem SID": "SID315479302", "Tnf reporter robust z-score": 0.65, "fewer than 50 cells in well": "enough cells in well", "Call": "inactive"}
{"gene": "Pkmyt1", "PubChem SID": "SID315480812", "Tnf reporter robust z-score": -0.47, "fewer than 50 cells in well": "enough cells in well", "Call": "inactive"}
{"gene": "Orc4", "PubChem SID": "SID315470403", "Tnf reporter robust z-score": 0.86, "fewer than 50 cells in well": "enough cells in well", "Call": "inactive"}
{"gene": "Etnppl", "PubChem SID": "SID315474311", "Tnf reporter robust z-score": -1.39, "fewer than 50 cells in well": "enough cells in well", "Call": "active"}
{"gene": "Frk", "PubChem SID": "SID315466750", "Tnf reporter robust z-score": 3.03, "fewer than 50 cells in well": "enough cells in well", "Call": "active"}
{"gene": "Apobec1", "PubChem SID": "SID315465466", "Tnf reporter robust z-score": -0.39, "fewer than 50 cells in well": "enough cells in well", "Call": "inactive"}
{"gene": "Slc28a3", "PubChem SID": "SID315477006", "Tnf reporter robust z-score": -0.03, "fewer than 50 cells in well": "enough cells in well", "Call": "inactive"}
{"gene": "Fam98c", "PubChem SID": "SID315474789", "Tnf reporter robust z-score": 1.05, "fewer than 50 cells in well": "enough cells in well", "Call": "inactive"}
{"gene": "Olfr900", "PubChem SID": "SID315480506", "Tnf reporter robust z-score": 0.18, "fewer than 50 cells in well": "enough cells in well", "Call": "inactive"}
{"gene": "Chd4", "PubChem SID": "SID315476655", "Tnf reporter robust z-score": -1.29, "fewer than 50 cells in well": "enough cells in well", "Call": "inactive"}
{"gene": "Marveld1", "PubChem SID": "SID315480985", "Tnf reporter robust z-score": 4.27, "fewer than 50 cells in well": "enough cells in well", "Call": "active"}
{"gene": "Rwdd2a", "PubChem SID": "SID315473816", "Tnf reporter robust z-score": 2.5, "fewer than 50 cells in well": "enough cells in well", "Call": "inactive"}
{"gene": "Yae1d1", "PubChem SID": "SID315472773", "Tnf reporter robust z-score": -0.82, "fewer than 50 cells in well": "enough cells in well", "Call": "inactive"}
{"gene": "Or9g4", "PubChem SID": "SID315480230", "Tnf reporter robust z-score": 0.59, "fewer than 50 cells in well": "enough cells in well", "Call": "inactive"}

Targets listed so far whose target name begins with M or m (2):
{"gene": "Myog", "PubChem SID": "SID315468084", "fewer than 50 cells in well": "fewer than 50 cells per well; well left out of calls", "Call": "inactive"}
{"gene": "Marveld1", "PubChem SID": "SID315480985", "Tnf reporter robust z-score": 4.27, "fewer than 50 cells in well": "enough cells in well", "Call": "active"}
